Test results from the supplement of paper PMC10032668.
The list shows a part of the results. The list holds hits alone, and they repeat only in part.

By UniProt entry, the sequences of proteins in these tests, tags left out.
HIST1H1E, P10412, UniProt P10412, whole entry: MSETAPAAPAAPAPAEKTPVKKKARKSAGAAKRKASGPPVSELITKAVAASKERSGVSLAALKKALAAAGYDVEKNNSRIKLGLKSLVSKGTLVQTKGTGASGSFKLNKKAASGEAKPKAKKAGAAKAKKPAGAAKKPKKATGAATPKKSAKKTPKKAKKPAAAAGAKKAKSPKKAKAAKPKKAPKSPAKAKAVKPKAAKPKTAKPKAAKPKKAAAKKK
SET, Q01105, UniProt Q01105, whole entry: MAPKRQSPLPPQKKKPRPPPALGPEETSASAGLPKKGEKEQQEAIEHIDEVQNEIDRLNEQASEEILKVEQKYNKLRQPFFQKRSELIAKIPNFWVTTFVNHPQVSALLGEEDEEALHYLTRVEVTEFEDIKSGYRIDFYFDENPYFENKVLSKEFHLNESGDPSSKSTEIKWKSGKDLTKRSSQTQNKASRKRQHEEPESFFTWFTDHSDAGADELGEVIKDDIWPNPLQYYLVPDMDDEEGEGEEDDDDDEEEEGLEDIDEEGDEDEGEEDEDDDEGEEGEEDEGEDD
SRSF1, Q07955, UniProt Q07955, whole entry: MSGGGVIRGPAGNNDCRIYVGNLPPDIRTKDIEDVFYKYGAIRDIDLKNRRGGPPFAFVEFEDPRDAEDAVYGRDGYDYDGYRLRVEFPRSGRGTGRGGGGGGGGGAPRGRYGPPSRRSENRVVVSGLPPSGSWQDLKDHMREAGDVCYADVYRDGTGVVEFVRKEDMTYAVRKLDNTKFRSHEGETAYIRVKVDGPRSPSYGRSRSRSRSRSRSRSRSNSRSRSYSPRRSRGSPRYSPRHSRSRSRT
ATP6V0D1, P61421, UniProt P61421, whole entry: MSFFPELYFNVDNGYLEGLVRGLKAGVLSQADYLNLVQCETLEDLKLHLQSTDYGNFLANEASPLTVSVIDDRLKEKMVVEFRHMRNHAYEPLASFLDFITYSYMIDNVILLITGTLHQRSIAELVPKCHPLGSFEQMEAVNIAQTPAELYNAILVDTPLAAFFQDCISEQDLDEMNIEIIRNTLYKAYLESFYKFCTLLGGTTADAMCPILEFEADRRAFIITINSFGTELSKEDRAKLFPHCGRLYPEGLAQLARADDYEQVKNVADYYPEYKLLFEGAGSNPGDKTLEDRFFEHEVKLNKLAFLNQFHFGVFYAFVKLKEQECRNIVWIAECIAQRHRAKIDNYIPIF
CUL4A, Q13619, UniProt Q13619, whole entry: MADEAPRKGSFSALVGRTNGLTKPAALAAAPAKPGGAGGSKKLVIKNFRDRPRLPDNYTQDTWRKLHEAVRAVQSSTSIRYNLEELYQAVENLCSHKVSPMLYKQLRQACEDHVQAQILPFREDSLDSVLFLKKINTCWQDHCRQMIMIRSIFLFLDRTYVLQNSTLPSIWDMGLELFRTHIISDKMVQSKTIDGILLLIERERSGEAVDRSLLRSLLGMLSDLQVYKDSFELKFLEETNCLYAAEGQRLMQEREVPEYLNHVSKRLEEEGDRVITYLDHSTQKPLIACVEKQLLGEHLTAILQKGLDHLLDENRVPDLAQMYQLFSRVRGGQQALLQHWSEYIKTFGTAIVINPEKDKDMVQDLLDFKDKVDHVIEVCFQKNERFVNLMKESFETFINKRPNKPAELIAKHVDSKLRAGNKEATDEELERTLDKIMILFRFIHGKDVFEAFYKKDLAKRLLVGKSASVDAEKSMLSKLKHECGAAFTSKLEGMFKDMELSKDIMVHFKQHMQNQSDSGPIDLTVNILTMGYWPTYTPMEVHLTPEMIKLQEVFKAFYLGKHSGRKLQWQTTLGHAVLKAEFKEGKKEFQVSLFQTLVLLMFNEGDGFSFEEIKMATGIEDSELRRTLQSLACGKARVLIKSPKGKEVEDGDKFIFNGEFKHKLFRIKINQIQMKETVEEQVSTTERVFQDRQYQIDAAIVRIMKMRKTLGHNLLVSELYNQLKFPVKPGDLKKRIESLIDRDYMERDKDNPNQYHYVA
MAPK1, P28482, UniProt P28482, whole entry: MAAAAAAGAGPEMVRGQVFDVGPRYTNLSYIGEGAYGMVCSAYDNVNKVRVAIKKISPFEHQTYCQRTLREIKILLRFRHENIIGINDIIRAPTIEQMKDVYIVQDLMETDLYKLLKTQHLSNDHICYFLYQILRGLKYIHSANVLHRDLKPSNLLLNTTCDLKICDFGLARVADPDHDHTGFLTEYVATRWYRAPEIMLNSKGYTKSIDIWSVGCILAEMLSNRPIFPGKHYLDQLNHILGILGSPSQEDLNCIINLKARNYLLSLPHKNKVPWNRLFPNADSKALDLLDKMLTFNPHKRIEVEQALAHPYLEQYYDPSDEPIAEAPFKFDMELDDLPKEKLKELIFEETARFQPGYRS
NDUFS6, O75380, UniProt O75380, whole entry: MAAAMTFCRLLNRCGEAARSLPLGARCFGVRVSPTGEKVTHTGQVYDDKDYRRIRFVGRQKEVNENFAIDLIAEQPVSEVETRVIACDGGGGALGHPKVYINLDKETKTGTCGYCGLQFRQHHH
NDUFS7, O75251, UniProt O75251, whole entry: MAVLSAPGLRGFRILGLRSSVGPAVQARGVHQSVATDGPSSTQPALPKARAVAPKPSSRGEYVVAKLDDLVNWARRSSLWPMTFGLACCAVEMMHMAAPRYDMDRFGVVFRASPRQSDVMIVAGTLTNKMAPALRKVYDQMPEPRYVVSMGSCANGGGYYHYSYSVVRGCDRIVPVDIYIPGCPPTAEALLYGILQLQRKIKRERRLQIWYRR
POLR1C, O15160, UniProt O15160, whole entry: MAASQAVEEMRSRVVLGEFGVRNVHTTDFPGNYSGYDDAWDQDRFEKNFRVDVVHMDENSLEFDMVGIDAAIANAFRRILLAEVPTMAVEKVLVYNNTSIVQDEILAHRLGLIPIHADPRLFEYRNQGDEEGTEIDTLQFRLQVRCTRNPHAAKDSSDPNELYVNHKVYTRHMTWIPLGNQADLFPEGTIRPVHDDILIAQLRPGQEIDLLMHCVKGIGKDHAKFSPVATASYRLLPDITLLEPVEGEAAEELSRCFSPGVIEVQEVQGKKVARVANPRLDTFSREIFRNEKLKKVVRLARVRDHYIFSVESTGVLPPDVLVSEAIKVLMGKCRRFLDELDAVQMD

Legend:
Test in all cases: PRISMA enrichment of interactor (LFQ) in peptide spot vs all other peptide spots (log2 fold change); higher = stronger / more specific binding of the interactor to the peptide
ANP32A, P39687 = target: ANP32A, P39687
Protocol: (§1)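 PRISMA: 15-aa overlapping tiles (offset 8 aa) of 60 microproteins, plus SOS1/GLUT1 control peptides, were spot-synthesized on cellulose membranes in triplicate. Membranes were incubated with benzonase-treated HEK293T lysate, and bound proteins were identified by LC-MS/MS with LFQ. Enrichment is the log2 fold change of each protein in one spot versus all other spots. Only interactors passing the significance cutoff are listed.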

C1QBP, Q07021 = target: C1QBP, Q07021
Protocol: as §1

CLN6, Q9NWW5 = target: CLN6, Q9NWW5
Protocol: as §1

HIST1H1E, P10412 = target: HIST1H1E, P10412
Protocol: as §1

RAB8A, P61006 = target: RAB8A, P61006
Protocol: as §1

SBDS, Q9Y3A5 = target: SBDS, Q9Y3A5
Protocol: as §1

SET, Q01105 = target: SET, Q01105
Protocol: as §1

SRSF1, Q07955 = target: SRSF1, Q07955
Protocol: as §1

SRSF2, Q01130 = target: SRSF2, Q01130
Protocol: as §1

SRSF5, Q13243 = target: SRSF5, Q13243
Protocol: as §1

SRSF6, Q13247 = target: SRSF6, Q13247
Protocol: as §1

SRSF7, Q16629 = target: SRSF7, Q16629
Protocol: as §1

PTMA, P06454 = target: PTMA, P06454
Protocol: as §1

ANP32B, Q92688 = target: ANP32B, Q92688
Protocol: as §1

ANP32E, Q9BTT0 = target: ANP32E, Q9BTT0
Protocol: as §1

ATP6V0D1, P61421 = target: ATP6V0D1, P61421
Protocol: as §1

CUL4A, Q13619 = target: CUL4A, Q13619
Protocol: as §1

CYB5B, O43169 = target: CYB5B, O43169
Protocol: as §1

DDX20, Q9UHI6 = target: DDX20, Q9UHI6
Protocol: as §1

HNRNPAB, Q99729 = target: HNRNPAB, Q99729
Protocol: as §1

MRPS35, P82673 = target: MRPS35, P82673
Protocol: as §1

ODF2, Q5BJF6 = target: ODF2, Q5BJF6
Protocol: as §1

PPIG, Q13427 = target: PPIG, Q13427
Protocol: as §1

SPTAN1, Q13813 = target: SPTAN1, Q13813
Protocol: as §1

YWHAG, P61981 = target: YWHAG, P61981
Protocol: as §1

C11orf58, O00193 = target: C11orf58, O00193
Protocol: as §1

CCZ1, P86791 = target: CCZ1, P86791
Protocol: as §1

FBXO5, Q9UKT4 = target: FBXO5, Q9UKT4
Protocol: as §1

FGA, P02671 = target: FGA, P02671
Protocol: as §1

GRB2, P62993 = target: GRB2, P62993
Protocol: as §1

HDGFL2, Q7Z4V5 = target: HDGFL2, Q7Z4V5
Protocol: as §1

MAPK1, P28482 = target: MAPK1, P28482
Protocol: as §1

NDUFS6, O75380 = target: NDUFS6, O75380
Protocol: as §1

NDUFS7, O75251 = target: NDUFS7, O75251
Protocol: as §1

[1] = substrate: PCNP, Q8WW12
Protocol: as §1

POLR1C, O15160 = target: POLR1C, O15160
Protocol: as §1

PREX2, Q70Z35 = target: PREX2, Q70Z35
Protocol: as §1

TRA2B, P62995 = target: TRA2B, P62995
Protocol: as §1

WDR18, Q9BV38 = target: WDR18, Q9BV38
Protocol: as §1

Binder: ARGGRDEEGRRRAAS [PVT1]
- PRISMA enrichment of interactor (log2) (ANP32A, P39687): 6.36
- PRISMA enrichment of interactor (log2) (C1QBP, Q07021): 7.74
- PRISMA enrichment of interactor (log2) (CLN6, Q9NWW5): 4.33
- PRISMA enrichment of interactor (log2) (HIST1H1E, P10412): 7.32
- PRISMA enrichment of interactor (log2) (RAB8A, P61006): 5.96
- PRISMA enrichment of interactor (log2) (SBDS, Q9Y3A5): 5.51
- PRISMA enrichment of interactor (log2) (SET, Q01105): 6.31
- PRISMA enrichment of interactor (log2) (SRSF1, Q07955): 6.64
- PRISMA enrichment of interactor (log2) (SRSF2, Q01130): 6.79
- PRISMA enrichment of interactor (log2) (SRSF5, Q13243): 5.76
- PRISMA enrichment of interactor (log2) (SRSF6, Q13247): 5.89
- PRISMA enrichment of interactor (log2) (SRSF7, Q16629): 7.16

Binder: LKKVLPRKKKGNLME
- PRISMA enrichment of interactor (log2) (ANP32A, P39687): 6.38
- PRISMA enrichment of interactor (log2) (PTMA, P06454): 5.45

Binder: KKKGNLMETCVYQME
- PRISMA enrichment of interactor (log2) (ANP32A, P39687): 7.99
- PRISMA enrichment of interactor (log2) (ANP32B, Q92688): 6.25
- PRISMA enrichment of interactor (log2) (ANP32E, Q9BTT0): 5.33
- PRISMA enrichment of interactor (log2) (ATP6V0D1, P61421): 6.29
- PRISMA enrichment of interactor (log2) (CUL4A, Q13619): 3.78
- PRISMA enrichment of interactor (log2) (CYB5B, O43169): 5.12
- PRISMA enrichment of interactor (log2) (DDX20, Q9UHI6): 4.75
- PRISMA enrichment of interactor (log2) (HNRNPAB, Q99729): 4.83
- PRISMA enrichment of interactor (log2) (MRPS35, P82673): 5.99
- PRISMA enrichment of interactor (log2) (ODF2, Q5BJF6): 6.24
- PRISMA enrichment of interactor (log2) (PPIG, Q13427): 4.9
- PRISMA enrichment of interactor (log2) (SET, Q01105): 6.23
- PRISMA enrichment of interactor (log2) (SPTAN1, Q13813): 6.26
- PRISMA enrichment of interactor (log2) (YWHAG, P61981): 6.35

Binder: KRRQEATHGSSFSHK
- PRISMA enrichment of interactor (log2) (ANP32A, P39687): 6.76
- PRISMA enrichment of interactor (log2) (ANP32B, Q92688): 5.76
- PRISMA enrichment of interactor (log2) (C11orf58, O00193): 5.23
- PRISMA enrichment of interactor (log2) (CCZ1, P86791): 6.32
- PRISMA enrichment of interactor (log2) (FBXO5, Q9UKT4): 5.51
- PRISMA enrichment of interactor (log2) (FGA, P02671): 5.03
- PRISMA enrichment of interactor (log2) (GRB2, P62993): 4.98
- PRISMA enrichment of interactor (log2) (HDGFL2, Q7Z4V5): 4.57
- PRISMA enrichment of interactor (log2) (MAPK1, P28482): 4.89
- PRISMA enrichment of interactor (log2) (NDUFS6, O75380): 8.04
- PRISMA enrichment of interactor (log2) (NDUFS7, O75251): 5.54
- PRISMA enrichment of interactor (log2) [1]: 4.15
- PRISMA enrichment of interactor (log2) (POLR1C, O15160): 4.16
- PRISMA enrichment of interactor (log2) (PREX2, Q70Z35): 6.82
- PRISMA enrichment of interactor (log2) (SET, Q01105): 6.74
- PRISMA enrichment of interactor (log2) (SRSF1, Q07955): 5.73
- PRISMA enrichment of interactor (log2) (SRSF2, Q01130): 5.97
- PRISMA enrichment of interactor (log2) (SRSF5, Q13243): 5.33
- PRISMA enrichment of interactor (log2) (SRSF7, Q16629): 6.23
- PRISMA enrichment of interactor (log2) (TRA2B, P62995): 5.74
- PRISMA enrichment of interactor (log2) (WDR18, Q9BV38): 4.39
